{"source": "PubChem BioAssay AID1259425, University of Nebraska Medical Center, 2018", "test": "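Seek colon cancer weak points whose silencing resembles KSR1 loss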 (primary screen)", "system": "HCT116 human colon cancer cells", "reagent": "siRNA pool against human genes, 50 nM siRNA", "measured": "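mRNA of six signature genes measured together by branched-DNA assay after 50 nM siRNA pool, blank removed, divided by geometric mean of two housekeeping genes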", "reading the numbers": "BNIP3L mRNA: higher = more BNIP3L transcript after knockdown; NDRG1 mRNA: higher = more NDRG1 transcript after knockdown", "note": "In all, the deposit lists about 14,000 reagents; below is an unselected part. Further read-outs or replicates are left out here. Reagent sequences are not shown. Not given: the time to read-out."}
{"Target gene": "PISD", "BNIP3L mRNA, set 1": 0.391, "NDRG1 mRNA, set 1": 0.691}
{"Target gene": "CCL27", "BNIP3L mRNA, set 1": 0.0874, "NDRG1 mRNA, set 1": 0.212}
{"Target gene": "ST8SIA3", "BNIP3L mRNA, set 1": 0.044, "NDRG1 mRNA, set 1": 0.233}
{"Target gene": "ATP13A3", "BNIP3L mRNA, set 1": 0.165, "NDRG1 mRNA, set 1": 0.347}
{"Target gene": "ZSWIM4", "BNIP3L mRNA, set 1": 0.226, "NDRG1 mRNA, set 1": 0.805}
{"Target gene": "NFE2L1", "BNIP3L mRNA, set 1": 0.151, "NDRG1 mRNA, set 1": 0.322}
{"Target gene": "DERL2", "BNIP3L mRNA, set 1": 0.272, "NDRG1 mRNA, set 1": 0.78}
{"Target gene": "FBXO24", "BNIP3L mRNA, set 1": 0.117, "NDRG1 mRNA, set 1": 0.83}
{"Target gene": "TONSL", "BNIP3L mRNA, set 1": 0.0941, "NDRG1 mRNA, set 1": 0.0876}
{"Target gene": "CHN1", "BNIP3L mRNA, set 1": 0.0581, "NDRG1 mRNA, set 1": 0.145}
{"Target gene": "RBM25", "BNIP3L mRNA, set 1": 0.251, "NDRG1 mRNA, set 1": 1.44}
{"Target gene": "CYSLTR1", "BNIP3L mRNA, set 1": 0.197, "NDRG1 mRNA, set 1": 0.358}
{"Target gene": "SNTB1", "BNIP3L mRNA, set 1": 0.173, "NDRG1 mRNA, set 1": 0.354}
{"Target gene": "ATP6V0A1", "BNIP3L mRNA, set 1": 0.434, "NDRG1 mRNA, set 1": 1.27}
{"Target gene": "LBR", "BNIP3L mRNA, set 1": 0.0681, "NDRG1 mRNA, set 1": 0.137}
{"Target gene": "TAF11", "BNIP3L mRNA, set 1": 0.105, "NDRG1 mRNA, set 1": 0.364}
{"Target gene": "COX7B", "BNIP3L mRNA, set 1": 0.0971, "NDRG1 mRNA, set 1": 0.247}
{"Target gene": "ZNF285", "BNIP3L mRNA, set 1": 0.296, "NDRG1 mRNA, set 1": 0.302}
{"Target gene": "PPOX", "BNIP3L mRNA, set 1": 0.11, "NDRG1 mRNA, set 1": 0.122}
{"Target gene": "EFHD2", "BNIP3L mRNA, set 1": 0.188, "NDRG1 mRNA, set 1": 0.521}
{"Target gene": "ADGRF2P", "BNIP3L mRNA, set 1": 0.0796, "NDRG1 mRNA, set 1": 0.193}
{"Target gene": "TUBB3", "BNIP3L mRNA, set 1": 0.0765, "NDRG1 mRNA, set 1": 0.214}
{"Target gene": "RSRP1", "BNIP3L mRNA, set 1": 0.0707, "NDRG1 mRNA, set 1": 0.473}
{"Target gene": "CYB5R3", "BNIP3L mRNA, set 1": 0.091, "NDRG1 mRNA, set 1": 0.188}
{"Target gene": "ANGPT1", "BNIP3L mRNA, set 1": 0.126, "NDRG1 mRNA, set 1": 0.474}
{"Target gene": "COPS5", "BNIP3L mRNA, set 1": 0.178, "NDRG1 mRNA, set 1": 1.03}
{"Target gene": "IGF2BP2", "BNIP3L mRNA, set 1": 0.154, "NDRG1 mRNA, set 1": -0.0238}
{"Target gene": "TMEM258", "BNIP3L mRNA, set 1": 0.191, "NDRG1 mRNA, set 1": 0.405}
